# Experimental data reported in the antibiotic and cytotoxicity screens of Wong et al. (2023).
# This list holds what a sample rich in hits left over.
# How the values were obtained:
# HSkMC = human skeletal muscle cells; experiment: cytotoxicity call (relative viability < 0.9); details: 10 µM
# HepG2 = experiment: cytotoxicity call (relative viability < 0.9); details: 10 µM
smiles,measurement,setting,value
CC(C)(C)c1ccc(O)cc1,cytotoxicity call,HSkMC,inactive
same,cytotoxicity call,HepG2,inactive
